The list shows only some results of the screen, not a fair sample: it is rich in T/C values a quarter to a half above the control, in often repeated tests (any T/C) and in doses without a T/C. Further doses and runs are listed elsewhere. T/C: endpoint of the treated group in % of that of the vehicle group. Some entries give survivors of the animals treated and no T/C: the source files T/C as zero there, which appears to mark a toxic dose or a test without result, not a measured value. Some survivor counts are full or nearly so, which does not show that the dose was tolerated: the source hardly ever lists a survival T/C far under the control, and the zero likely stands for such cases as well. Counts of survivors are from the toxicity check (mostly the fifth day) where no day follows; animals may have died later. Schedule codes are those of the source, read here as Q, the interval in days (D) or hours (H), X, the number of doses. Some schedules carry Z or #; the key to these is not given. Some molecules as drawn cover several salts, stereoisomers or complexes of the source; a dose is that of the sample tested. Marks such as (2×) say how often a value occurs here. Where survival is the endpoint, the PubChem record calls one and a half times the control and up active, and a quarter to a half above the control has no call in these data; cut-offs in other NCI protocols can differ. Some T/C values are followed by the survivors on the day toxicity was checked, most often the fifth; where none is given, no animal had died by that day.
Test system: L1210 leukemia ip in BDF1 mice, survival T/C
Experiment: NCI In Vivo Anticancer Drug Screen. Data for tumor model L1210 Leukemia (intraperitoneal) in B6D2F1 (BDF1) mice
Conditions: T/C endpoint: mean survival time, higher T/C = longer survival
[1] = dose: 200.0 mg/kg/injection, schedule: Q04DX002 (ip), vehicle: saline
[2] = dose: 400.0 mg/kg/injection, schedule: Q04DX002 (ip), vehicle: saline
[3] = dose: 3.12 mg/kg/injection, schedule: Q01DX009 (ip), vehicle: saline with Tween-80
[4] = dose: 400.0 mg/kg/injection, schedule: Q01DX001 (ip), vehicle: saline
[5] = dose: 40.0 mg/kg/injection, schedule: Q01DX001 (ip), vehicle: saline
[6] = dose: 75.0 mg/kg/injection, schedule: Q01DX001 (ip), vehicle: saline
[7] = dose: 150.0 mg/kg/injection, schedule: Q01DX001 (ip), vehicle: saline
[8] = dose: 300.0 mg/kg/injection, schedule: Q01DX001 (ip), vehicle: saline

Q: Which results are given for CN(N=O)C(=O)NCCSSCCNC(=O)N(C)N=O?
A: T/C (dose: 25.0 mg/kg/injection, schedule: Q01DX Z (ip), vehicle: carboxymethylcellulose (CMC)): 133 % of control; T/C (dose: 30.0 mg/kg/injection, schedule: Q01DX011 (ip), vehicle: carboxymethylcellulose (CMC)): 132 % of control; T/C (dose: 30.0 mg/kg/injection, schedule: Q01DX Z (ip), vehicle: carboxymethylcellulose (CMC)): 130 % of control; T/C (dose: 35.0 mg/kg/injection, schedule: Q01DX Z (ip), vehicle: carboxymethylcellulose (CMC)): 130 % of control; T/C (dose: 45.0 mg/kg/injection, schedule: Q01DX Z (ip), vehicle: carboxymethylcellulose (CMC)): 125 % of control [5 of 6 alive]; T/C (dose: 50.0 mg/kg/injection, schedule: Q01DX Z (ip), vehicle: carboxymethylcellulose (CMC)): 143 % of control; survivor count (dose: 100.0 mg/kg/injection, schedule: Q01DX Z (ip), vehicle: carboxymethylcellulose (CMC)): 5 of 6; survivor count (dose: 200.0 mg/kg/injection, schedule: Q01DX Z (ip), vehicle: carboxymethylcellulose (CMC)): 0 of 6; survivor count (dose: 300.0 mg/kg/injection, schedule: Q01DX Z (ip), vehicle: carboxymethylcellulose (CMC)): 0 of 6; survivor count (dose: 400.0 mg/kg/injection, schedule: Q01DX Z (ip), vehicle: carboxymethylcellulose (CMC)): 0 of 6

Q: Which results are given for CCCCOCc1c(CO)cnc(C)c1O?
A: survivor count [1]: 1 of 3; survivor count [2]: 0 of 3

Q: What does the source list for ClCc1c2ccccc2c(CCl)c2ccccc12?
A: T/C [3]: 136 % of control [4 of 6 alive]; survivor count [3]: 6 of 6; survivor count (dose: 6.25 mg/kg/injection, schedule: Q01DX009 (ip), vehicle: saline with Tween-80): 2 of 6; T/C (dose: 8.0 mg/kg/injection, schedule: Q01DX009 (ip), vehicle: carboxymethylcellulose (CMC)): 125 % of control; survivor count (dose: 12.5 mg/kg/injection, schedule: Q01DX009 (ip), vehicle: saline with Tween-80): 5 of 6; survivor count (dose: 14.0 mg/kg/injection, schedule: Q01DX015 (ip), vehicle: carboxymethylcellulose (CMC)): 2 of 6; survivor count (dose: 24.0 mg/kg/injection, schedule: Q01DX015 (ip), vehicle: carboxymethylcellulose (CMC)): 2 of 6; survivor count (dose: 25.0 mg/kg/injection, schedule: Q01DX009 (ip), vehicle: saline with Tween-80): 0 of 6; survivor count (dose: 40.0 mg/kg/injection, schedule: Q01DX009 (ip), vehicle: carboxymethylcellulose (CMC)): 6 of 6; survivor count (dose: 40.0 mg/kg/injection, schedule: Q01DX015 (ip), vehicle: carboxymethylcellulose (CMC)): 2 of 6; survivor count (dose: 50.0 mg/kg/injection, schedule: Q01DX009 (ip), vehicle: saline with Tween-80): 0 of 6; survivor count (dose: 67.0 mg/kg/injection, schedule: Q01DX015 (ip), vehicle: carboxymethylcellulose (CMC)): 3 of 6; survivor count (dose: 100.0 mg/kg/injection, schedule: Q01DX009 (ip), vehicle: saline with Tween-80): 0 of 6; T/C (dose: 133.4 mg/kg/injection, schedule: Q01DX001 (ip), vehicle: saline): 126 % of control; T/C (dose: 200.0 mg/kg/injection, schedule: Q01DX001 (ip), vehicle: saline): 130 % of control

Q: What does the source list for NCCCOC12CC3CC(CC(C3)C1)C2?
A: survivor count (dose: 100.0 mg/kg/injection, schedule: Q04DX002 (ip), vehicle: saline): 0 of 3; survivor count [1]: 0 of 3; survivor count [2]: 0 of 3

Q: CC(N)c1ccc(OCCOc2ccc(C(C)(C)CC(C)(C)C)cc2)cc1 (configuration not stated) was tested. Which survivor count (dose: 400.0 mg/kg/injection, schedule: Q04DX003 (ip), vehicle: Klucel (hydroxypropylcellulose) (HPC)) did it give?
A: The survivor count was 1 of 6.

Q: With Cc1c(-c2ccccc2)sc(N)c1C#N as the compound, how does the survivor count (dose: 100.0 mg/kg/injection, schedule: Q04DX002 (ip), vehicle: saline with Tween-80) read?
A: Its survivor count is 3 of 3.

Q: And the survivor count (dose: 400.0 mg/kg/injection, schedule: Q04DX002 (ip), vehicle: saline with Tween-80)?
A: Its survivor count is 3 of 3.

Q: Which survivor count (dose: 150.0 mg/kg/injection, schedule: Q01DX009 (ip), vehicle: Klucel (hydroxypropylcellulose) (HPC)) does the source give for O=c1oc(-c2ccccc2)nc2c(Cl)ccc(Cl)c12 here?
A: The survivor count was 3 of 6.

Q: With O=P(CCl)(Oc1ccc(Cl)cc1)Oc1ccc(Cl)cc1 as the compound, how does the survivor count [4] read?
A: The survivor count was 2 of 4.

Q: Which survivor count (dose: 8.0 mg/kg/injection, schedule: Q01DX009 (ip), vehicle: saline) does the source give for c1ccc2c[n+](CCCCCCCCCC[n+]3ccc4ccccc4c3)ccc2c1 here?
A: Its survivor count is 6 of 6.

Q: What about the survivor count (dose: 16.0 mg/kg/injection, schedule: Q01DX009 (ip), vehicle: saline) of the same compound?
A: Its survivor count is 6 of 6.

Q: And the survivor count (dose: 32.0 mg/kg/injection, schedule: Q01DX009 (ip), vehicle: saline)?
A: The survivor count was 2 of 6.

Q: And the survivor count (dose: 45.0 mg/kg/injection, schedule: Q04DX003 (ip), vehicle: saline)?
A: Its survivor count is 0 of 6.

Q: What about the survivor count (dose: 70.0 mg/kg/injection, schedule: Q04DX003 (ip), vehicle: saline) of the same compound?
A: The survivor count was 0 of 6.

Q: And the survivor count (dose: 105.0 mg/kg/injection, schedule: Q04DX003 (ip), vehicle: saline)?
A: Its survivor count is 0 of 6.

Q: How did the survivor count [4] turn out when CCCCCCCCCCCCNNC(=O)OCCO was run?
A: Its survivor count is 1 of 6.

Q: Which survivor count (dose: 60.0 mg/kg/injection, schedule: Q01DX001 (ip), vehicle: carboxymethylcellulose (CMC)) does the source give for CC(=O)CC(=O)Nc1cccc(Cl)c1 here?
A: The survivor count was 0 of 6.

Q: What about the survivor count (dose: 75.0 mg/kg/injection, schedule: Q01DX001 (ip), vehicle: carboxymethylcellulose (CMC)) of the same compound?
A: The survivor count was 0 of 6.

Q: What about the survivor count (dose: 150.0 mg/kg/injection, schedule: Q01DX001 (ip), vehicle: carboxymethylcellulose (CMC)) of the same compound?
A: The survivor count was 0 of 6.

Q: And the survivor count (dose: 300.0 mg/kg/injection, schedule: Q01DX001 (ip), vehicle: carboxymethylcellulose (CMC))?
A: Its survivor count is 0 of 6.

Q: With Cc1ccc(/C(=N\N=C(N)N)C2CC2)cc1C as the compound, how does the survivor count (dose: 120.0 mg/kg/injection, schedule: Q01DX Z (ip), vehicle: methylcellulose (MC)) read?
A: Its survivor count is 0 of 6.

Q: What about the survivor count (dose: 120.0 mg/kg/injection, schedule: Q01DX Z (oral), vehicle: methylcellulose (MC)) of the same compound?
A: The survivor count was 5 of 6.

Q: And the survivor count (dose: 240.0 mg/kg/injection, schedule: Q01DX Z (oral), vehicle: methylcellulose (MC))?
A: The survivor count was 3 of 6.

Q: For Clc1ccc(C[As+](c2ccccc2)(c2ccccc2)c2ccccc2)cc1, which survivor count (dose: 10.0 mg/kg/injection, schedule: Q01DX001 (ip), vehicle: saline) is on record?
A: The survivor count was 6 of 6.

Q: And the survivor count [5]?
A: The survivor count was 0 of 6.

Q: What about the survivor count [6] of the same compound?
A: Its survivor count is 0 of 6.

Q: And the survivor count [7]?
A: Its survivor count is 0 of 6.

Q: What about the survivor count [8] of the same compound?
A: Its survivor count is 0 of 6.

Q: What does the source list for CC(=O)C=O?
A: survivor count (dose: 240.0 mg/kg/injection, schedule: Q03DX002 (ip), vehicle: saline): 3 of 10; survivor count [8]: 2 of 10; survivor count (dose: 360.0 mg/kg/injection, schedule: Q03DX002 (ip), vehicle: saline): 0 of 10; survivor count (dose: 450.0 mg/kg/injection, schedule: Q01DX001 (ip), vehicle: saline): 0 of 10; survivor count (dose: 540.0 mg/kg/injection, schedule: Q03DX002 (ip), vehicle: saline): 0 of 10; survivor count (dose: 675.0 mg/kg/injection, schedule: Q01DX001 (ip), vehicle: saline): 0 of 10; survivor count (dose: 810.0 mg/kg/injection, schedule: Q03DX002 (ip), vehicle: saline): 0 of 10; survivor count (dose: 1000.0 mg/kg/injection, schedule: Q01DX001 (ip), vehicle: saline): 0 of 10; survivor count (dose: 1500.0 mg/kg/injection, schedule: Q01DX001 (ip), vehicle: saline): 0 of 10; survivor count (dose: 2250.0 mg/kg/injection, schedule: Q01DX001 (ip), vehicle: saline): 0 of 10

Q: For C=C(C)C1(Cc2ccccc2)C(=O)NC(=S)NC1=O, which survivor count (dose: 18.75 mg/kg/injection, schedule: Q01DX001 (ip), vehicle: saline) is on record?
A: The survivor count was 3 of 6.

Q: And the survivor count (dose: 20.0 mg/kg/injection, schedule: Q01DX001 (ip), vehicle: saline)?
A: Its survivor count is 3 of 6.

Q: What about the survivor count (dose: 37.5 mg/kg/injection, schedule: Q01DX001 (ip), vehicle: saline) of the same compound?
A: The survivor count was 0 of 6.

Q: What about the survivor count [5] of the same compound?
A: Its survivor count is 0 of 6.

Q: What about the survivor count [6] of the same compound?
A: Its survivor count is 0 of 6 (3×).

Q: What about the survivor count [7] of the same compound?
A: Its survivor count is 0 of 6 (3×).

Q: And the survivor count [8]?
A: The survivor count was 0 of 6 (3×).

Q: CCN(CC)CCn1ccnc1C was tested. Which survivor count (dose: 400.0 mg/kg/injection, schedule: Q01DX005 (ip), vehicle: saline) did it give?
A: The survivor count was 0 of 4.

Source: PubChem BioAssay AID248 (DTP/NCI, 2004)
